# Test results as given in article PMC3926846.
# Chains of the proteins cited; added tags and fusions are not shown.
# UniProt Q15075: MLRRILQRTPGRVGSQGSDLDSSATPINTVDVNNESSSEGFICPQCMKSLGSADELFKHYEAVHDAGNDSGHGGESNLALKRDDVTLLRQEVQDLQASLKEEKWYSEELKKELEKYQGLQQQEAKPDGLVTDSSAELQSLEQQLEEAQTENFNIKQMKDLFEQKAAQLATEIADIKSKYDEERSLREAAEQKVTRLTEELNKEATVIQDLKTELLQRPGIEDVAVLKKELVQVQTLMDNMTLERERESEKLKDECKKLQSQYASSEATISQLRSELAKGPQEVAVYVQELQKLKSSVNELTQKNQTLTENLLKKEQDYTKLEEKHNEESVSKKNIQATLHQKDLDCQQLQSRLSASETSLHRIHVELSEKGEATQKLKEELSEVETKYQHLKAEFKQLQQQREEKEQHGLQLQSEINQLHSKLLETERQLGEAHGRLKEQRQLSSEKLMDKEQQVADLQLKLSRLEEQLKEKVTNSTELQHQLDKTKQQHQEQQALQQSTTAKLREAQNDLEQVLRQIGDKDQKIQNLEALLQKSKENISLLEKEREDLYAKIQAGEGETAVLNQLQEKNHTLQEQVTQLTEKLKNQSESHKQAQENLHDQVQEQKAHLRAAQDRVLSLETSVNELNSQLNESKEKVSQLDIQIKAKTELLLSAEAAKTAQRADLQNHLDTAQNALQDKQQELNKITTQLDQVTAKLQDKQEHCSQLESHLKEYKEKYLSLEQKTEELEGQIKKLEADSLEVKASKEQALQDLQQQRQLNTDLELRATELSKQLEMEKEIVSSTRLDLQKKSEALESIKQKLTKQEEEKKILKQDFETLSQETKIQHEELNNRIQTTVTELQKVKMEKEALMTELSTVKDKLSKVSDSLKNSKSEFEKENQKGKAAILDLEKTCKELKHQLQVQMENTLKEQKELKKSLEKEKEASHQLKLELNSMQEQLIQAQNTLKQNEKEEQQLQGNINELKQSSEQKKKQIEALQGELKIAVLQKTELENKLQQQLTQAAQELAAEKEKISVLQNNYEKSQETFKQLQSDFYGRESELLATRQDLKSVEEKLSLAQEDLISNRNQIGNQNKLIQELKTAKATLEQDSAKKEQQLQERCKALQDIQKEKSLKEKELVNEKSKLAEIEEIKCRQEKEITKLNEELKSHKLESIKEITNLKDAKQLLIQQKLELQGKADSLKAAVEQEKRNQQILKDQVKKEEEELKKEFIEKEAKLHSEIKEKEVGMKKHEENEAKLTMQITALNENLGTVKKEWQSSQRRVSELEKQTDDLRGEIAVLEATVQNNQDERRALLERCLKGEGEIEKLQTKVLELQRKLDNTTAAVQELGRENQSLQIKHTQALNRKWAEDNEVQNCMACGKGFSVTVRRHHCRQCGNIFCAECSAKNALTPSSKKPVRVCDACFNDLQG
# UniProt Q03135: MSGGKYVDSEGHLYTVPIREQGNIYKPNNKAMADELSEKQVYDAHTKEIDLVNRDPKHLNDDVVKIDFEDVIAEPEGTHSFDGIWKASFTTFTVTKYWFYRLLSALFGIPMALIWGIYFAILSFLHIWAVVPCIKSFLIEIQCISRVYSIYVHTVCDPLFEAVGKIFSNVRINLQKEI
# Results are given in words; binding and its absence hold for the method and conditions named. Binding seen in cells or lysates may run through a third protein. Some entries that bind do so weakly or less than the wild type.
# Assays:
# EEA1 = EEA1 (UniProt Q15075); experiment: co-IP; immunoprecipitation (IP) analysis of caveolin-1 and EEA1, without and with RP53 (Figure S3D); cells not shown
# [1] = target: GST-p53 fragment #1 (93-142 AA) (human) (UniProt P04637); experiment: pull-down; agarose bead-conjugated GST-p53 (93-292 AA) and GST-p53 fragments (#1-4) incubated with A549 cell lysates; bound proteins blotted; only the target purified
substance,measurement,setting,value
caveolin-1 (from UniProt Q03135 1-178),binding,EEA1,binds
same,binding,[1],binds
